Measurements reported in PubChem BioAssay AID1259308 (NCATS, 2017)

- Test: 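Knock-downs that increase output of a recombinant reporter protein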 (primary screen)
- Cells: human HEK293 embryonic kidney cells stably expressing firefly luciferase (HEK-CMV-Luc2-Hygro)
- Knock-down reagent: single siRNA against human genes, 0.8 pmol siRNA per well
- Duration: 72 h
- Measured: 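Reporter luminescence and viable-cell signal on separate replicate plates, given as percent of non-targeting control and median/MAD z-scores, plus per-cell luciferase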
- Scale: total luciferase, z-score and total luciferase, % of control: higher = more reporter protein produced; luciferase per cell, z-score: higher = more reporter output per viable cell
- Rule for the call: 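An siRNA counts as active if its total luciferase robust z-score exceeds 3; genes with two or more such siRNAs out of three were retested with fresh siRNAs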
- Calls: active = raised luciferase; inactive = no rise
This is a random part of about 59,000 reagents tested. About 1,510 of them (2.6%) were called active. 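Calls use total luciferase alone and ignore viability, so some active siRNAs may act by altering cell number.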 The numbers tell different reagents against one gene apart. Further read-outs or replicates are left out here. Reagent sequences are not shown.

| target gene | reagent | total luciferase, z-score | total luciferase, % of control | luciferase per cell, z-score | outcome |
| --- | --- | --- | --- | --- | --- |
| SNRNP27 (GeneID 11017) | 1 | 1.11 | 104 | 0.703 | inactive |
| SNRNP27 (GeneID 11017) | 2 | -0.128 | 79.3 | -0.099 | inactive |
| SNRNP27 (GeneID 11017) | 3 | 0.00337 | 82 | 0.269 | inactive |
| SPRR4 (GeneID 163778) | 1 | 0.906 | 99.9 | 1.17 | inactive |
| SPRR4 (GeneID 163778) | 2 | 0.443 | 90.7 | 1.06 | inactive |
| SPRR4 (GeneID 163778) | 3 | 0.952 | 101 | 1.09 | inactive |
| LOC401957 (GeneID 401957) | 1 | 1.71 | 116 | 1.09 | inactive |
| LOC401957 (GeneID 401957) | 2 | -0.578 | 70.4 | -0.849 | inactive |
| LOC401957 (GeneID 401957) | 3 | 0.709 | 96 | 0.507 | inactive |
| MALRD1 (GeneID 340895) | 1 | 0.00286 | 81.9 | 0.223 | inactive |
| MALRD1 (GeneID 340895) | 2 | -0.138 | 79.1 | -0.508 | inactive |
| MALRD1 (GeneID 340895) | 3 | 0.512 | 92.1 | 0.271 | inactive |
| MALRD1 (GeneID 340895) | 4 | 1.45 | 111 | 1.11 | inactive |
| MALRD1 (GeneID 340895) | 5 | -0.371 | 74.5 | -0.525 | inactive |
| MALRD1 (GeneID 340895) | 6 | 0.736 | 96.5 | -0.0381 | inactive |
| KCNK5 (GeneID 8645) | 1 | 0.324 | 88.3 | -0.181 | inactive |
| KCNK5 (GeneID 8645) | 2 | -0.989 | 62.2 | -1.14 | inactive |
| KCNK5 (GeneID 8645) | 3 | -0.957 | 62.9 | 0.826 | inactive |
| ATP5F1D (GeneID 513) | 1 | 0.352 | 88.9 | 0.201 | inactive |
| ATP5F1D (GeneID 513) | 2 | -0.628 | 69.4 | -0.897 | inactive |
| ATP5F1D (GeneID 513) | 3 | -0.62 | 69.6 | -0.975 | inactive |
| USP15 (GeneID 9958) | 1 | -0.645 | 69.1 | -0.977 | inactive |
| USP15 (GeneID 9958) | 2 | -0.318 | 75.6 | -0.832 | inactive |
| USP15 (GeneID 9958) | 3 | -1.2 | 58 | -0.837 | inactive |
| OPN1SW (GeneID 611) | 1 | 1.24 | 107 | 1.14 | inactive |
| OPN1SW (GeneID 611) | 2 | 6.53 | 212 | 3.73 | active |
| OPN1SW (GeneID 611) | 3 | -0.625 | 69.5 | -0.262 | inactive |
| TUFM (GeneID 7284) | 1 | 0.0358 | 82.6 | -0.215 | inactive |
| TUFM (GeneID 7284) | 2 | 0.24 | 86.7 | -0.0732 | inactive |
| TUFM (GeneID 7284) | 3 | 0.928 | 100 | 0.47 | inactive |
| SHISA7 (GeneID 729956) | 1 | 0.413 | 90.1 | 0.748 | inactive |
| SHISA7 (GeneID 729956) | 2 | 0.979 | 101 | 1.2 | inactive |
| SHISA7 (GeneID 729956) | 3 | 0.872 | 99.2 | 1.4 | inactive |

The list goes on (2 carried over from the part before).
| target gene | reagent | total luciferase, z-score | total luciferase, % of control | luciferase per cell, z-score | outcome |
| --- | --- | --- | --- | --- | --- |
| SHISA7 (GeneID 729956) | 2 | 0.979 | 101 | 1.2 | inactive |
| SHISA7 (GeneID 729956) | 3 | 0.872 | 99.2 | 1.4 | inactive |
| RNF170 (GeneID 81790) | 1 | -0.206 | 77.8 | 0.902 | inactive |
| RNF170 (GeneID 81790) | 2 | 0.602 | 93.9 | 0.473 | inactive |
| RNF170 (GeneID 81790) | 3 | 0.663 | 95.1 | 1.05 | inactive |
| CALML3 (GeneID 810) | 1 | -0.738 | 67.2 | -0.453 | inactive |
| CALML3 (GeneID 810) | 2 | 0.91 | 100 | 0.928 | inactive |
| CALML3 (GeneID 810) | 3 | -0.103 | 79.8 | 0.416 | inactive |
| ELAPOR2 (GeneID 222223) | 1 | 1.65 | 115 | 0.676 | inactive |
| ELAPOR2 (GeneID 222223) | 2 | -2.9 | 24.2 | -5.14 | inactive |
| ELAPOR2 (GeneID 222223) | 3 | -0.336 | 75.2 | -0.31 | inactive |
| CLCNKB (GeneID 1188) | 1 | -0.588 | 70.2 | -0.884 | inactive |
| CLCNKB (GeneID 1188) | 2 | 1.34 | 108 | 1.35 | inactive |
| CLCNKB (GeneID 1188) | 3 | -0.774 | 66.5 | -0.768 | inactive |
| LDHC (GeneID 3948) | 1 | -0.296 | 76 | -0.43 | inactive |
| LDHC (GeneID 3948) | 2 | -1.12 | 59.5 | -1.73 | inactive |
| LDHC (GeneID 3948) | 3 | 0.194 | 85.7 | 0.774 | inactive |
| EFCAB5 (GeneID 374786) | 1 | -1.22 | 57.6 | -0.626 | inactive |
| EFCAB5 (GeneID 374786) | 2 | 0.495 | 91.7 | 0.404 | inactive |
| EFCAB5 (GeneID 374786) | 3 | 0.562 | 93.1 | 0.49 | inactive |
| SPRR2B (GeneID 6701) | 1 | -0.461 | 72.7 | -1.14 | inactive |
| SPRR2B (GeneID 6701) | 2 | 0.138 | 84.6 | 0.549 | inactive |
| SPRR2B (GeneID 6701) | 3 | 1.4 | 110 | 1.76 | inactive |
| ANXA2 (GeneID 302) | 1 | 1.55 | 113 | 0.867 | inactive |
| ANXA2 (GeneID 302) | 2 | -1.59 | 50.2 | -1.22 | inactive |
| ANXA2 (GeneID 302) | 3 | 1.83 | 118 | 1.21 | inactive |
